Data as given in PubChem BioAssay AID1259327 (Drosophila RNAi Screening Center, 2017)
Shown is a random part of about 3,100 reagents tested. 378 of them (12%) were called active. 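Hits include both directions; z-score sign shows ATP rise or fall; raw luminescence values are not plate-normalised.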 A plus sign joins genes that one reagent is predicted to hit. Not stated in the record: the amount of reagent.

Assay: 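Knock-downs altering cellular ATP with no metal added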
Cells: Drosophila S2R+ cells
Knock-down reagent: long dsRNA against Drosophila genes
Time to read-out: 5 days (water added on day 4, read one day later)
Challenge: water added as vehicle, no metal, one day before read-out
Read-out: 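Luciferase ATP signal per well, normalised to plate mean, duplicate average converted to z-score across plates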
Direction: ATP z-score: higher = more total ATP than typical wells; ATP luminescence: higher = more total ATP
Rule for the call: 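Called active when the ATP z-score exceeds 1.5 or falls below -1.5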
Calls: active = hit: ATP up or down; inactive = no clear ATP change

| Gene | dsRNA | ATP z-score, duplicate mean | ATP luminescence, replicate 1 (RLU) | ATP luminescence, replicate 2 (RLU) | Call |
| --- | --- | --- | --- | --- | --- |
| ppk21 | DRSC14466 | 0.434 | 6.35e5 | 7.69e5 | inactive |
| ppk21 | DRSC39432 | -0.405 | 4.38e5 | 4.15e5 | inactive |
| sei | DRSC29359 | -0.0232 | 7.08e5 | 9.21e5 | inactive |
| Irk3 | DRSC02047 | 0.239 | 8.15e5 | 6.89e5 | inactive |
| CG42818 | DRSC01963 | 1.09 | 8.29e5 | 8.55e5 | inactive |
| ORMDL | DRSC27778 | 1.42 | 8.69e5 | 8.87e5 | inactive |
| stet | DRSC08246 | -0.659 | 5.28e5 | 5.92e5 | inactive |
| stet | DRSC08283 | -0.895 | 6.14e5 | 6.78e5 | inactive |
| Ir31a | DRSC22358 | -0.61 | 7.53e5 | 7.96e5 | inactive |
| ClC-a | DRSC14947 | -0.405 | 3.11e5 | 6.40e5 | inactive |
| ClC-a | DRSC14948 | 0.838 | 2.88e5 | 9.76e5 | inactive |
| ClC-a | DRSC16142 | 0.677 | 7.87e5 | 7.64e5 | inactive |
| sesB | DRSC20371 | -1.64 | 5.74e5 | 4.41e5 | active |
| sesB | DRSC29874 | -2.02 | 4.39e5 | 3.78e5 | active |
| Spp | DRSC00328 | -0.33 | 5.27e5 | 3.79e5 | inactive |
| PIG-U | DRSC02193 | 1.1 | 5.36e5 | 5.78e5 | inactive |
| PIG-U | DRSC28900 | 0.234 | 9.06e5 | 8.01e5 | inactive |
| CG5715 | DRSC15860 | 0.547 | 3.19e5 | 8.34e5 | inactive |
| CG5715 | DRSC26011 | -0.691 | 7.39e5 | 7.90e5 | inactive |
| SK | DRSC17387 | 1.01 | 5.50e5 | 8.72e5 | inactive |
| SK | DRSC17887 | 4.38 | 1.06e6 | 1.39e6 | active |
| SK | DRSC17888 | -0.858 | 6.69e5 | 7.56e5 | inactive |
| SK | DRSC27622 | 0.781 | 9.43e5 | 1.03e6 | inactive |
| colt | DRSC00808 | -0.66 | 4.53e5 | 4.11e5 | inactive |
| colt | DRSC29025 | 0.329 | 8.87e5 | 8.40e5 | inactive |
| CG13877 + pyx | DRSC08347 | -0.211 | 5.52e5 | 6.49e5 | inactive |
| VhaM9.7-d | DRSC15028 | -0.0892 | 2.86e5 | 7.75e5 | inactive |
| Hacd1 | DRSC02988 | 1.15 | 4.94e5 | 6.30e5 | inactive |
| CG33969 | DRSC11777 | -0.491 | 6.84e5 | 6.94e5 | inactive |
| ppk8 | DRSC17269 | 0.0697 | 9.57e5 | 8.56e5 | inactive |
| ppk8 | DRSC39772 | -1.95 | 4.26e5 | 2.53e5 | active |
| glec | DRSC16958 | -1.79 | 2.24e5 | 5.53e5 | active |
| glec | DRSC25314 | -0.436 | 7.12e5 | 8.81e5 | inactive |
| Ptp10D | DRSC20272 | 0.214 | 6.20e5 | 7.38e5 | inactive |
| Ptp10D | DRSC36634 | -0.603 | 5.23e5 | 5.34e5 | inactive |
| Ptp10D | DRSC36635 | 1.4 | 8.47e5 | 5.46e5 | inactive |
| CG15096 | DRSC06525 | 0.834 | 8.04e5 | 8.37e5 | inactive |
| CG15096 | DRSC29737 | -0.46 | 7.92e5 | 7.45e5 | inactive |
| CG5326 | DRSC13568 | -0.259 | 3.13e5 | 6.70e5 | inactive |
| CG5326 | DRSC23719 | 1.44 | 1.02e6 | 1.04e6 | inactive |
| Lrp4 | DRSC20118 | 1.13 | 8.18e5 | 8.26e5 | inactive |
| CG10226 | DRSC09715 | 0.0492 | 6.78e5 | 7.96e5 | inactive |
| Gr98c | DRSC26546 | -0.638 | 9.34e5 | 9.89e5 | inactive |
| Gr98c | DRSC39650 | 1.75 | 5.65e5 | 6.05e5 | active |
| CG7881 | DRSC04898 | -0.472 | 5.89e5 | 5.64e5 | inactive |
| CG7881 | DRSC39816 | 1.16 | 5.68e5 | 5.52e5 | inactive |

An excerpt from above, reduced to “ATP luminescence, replicate 2 (RLU)”.
CG15096 [DRSC06525] = 8.37e5
CG15096 [DRSC29737] = 7.45e5
CG5326 [DRSC13568] = 6.70e5
